No constants are given. Whether binding was seen depends on the method and setting. In cells and extracts the contact can be indirect. Binding calls can cover weak binding; strength is not graded here.

This assay addresses GST-fused intact C-terminal frog usherin (analogous to mouse usherin 5053-5193 aa) (frog). Description: pull-down; GST-fused usherin fragments expressed in E. coli, incubated with mouse retinal lysate and glutathione sepharose beads for 2 hours at 4°C; washed three times with lysis buffer (50 mM Tris-HCl pH8.0, 150 mM NaCl, 0.5% TritonX-100, 5 mM EDTA, 1 mM DTT); whirlin detected by blot.

B1: endogenous whirlin from mouse retinal lysate (protein, UniProt Q80VW5-3 1-907)
chain: MNAQLDGLSVSSSSTGSLGSAAAAAGGGGGAGLRLLSANVRQLHQALTALLSEPEREQFTHCLNAYHARRNVFDLVRTLRVLLDSPVKRRLLPMLRLVIPRSDQLLFDQYTAEGLYLPATTPYRQPAWAAPDGAGPGEVRLVSLRRAKAHEGLGFSIRGGSEHGVGIYVSLVEPGSLAEKEGLRVGDQILRVNDKSLARVTHAEAVKALKGSKKLVLSVYSAGRIPGGYVTNHIYTWVDPQGRSTSPPSSLPQPHGSTLRQREDDRRSTLHLLQSGDEKKVNLVLGDGRSLGLTIRGGAEYGLGIYITGVDPGSEAESSGLKVGDQILEVNGRSFLNILHDEAVKLLKSSRHLILTVKDVGRLPHARTTVDQTKWIASSRIGESVANSAGFPGDHTEEGTSKPGFYKGPAGSQVTLSSLGNQTRALLDDQARHLLTEQERATMMYYLAQYRGGTISVEAMVMALFELLNTHAKFSLLSEVRSIISPQDLDRFDHLVLRREIESMKARQPPGPGVGDTYSMVSYSDTGSSTGSHGTSTTVSSARNTLDLEGTGETTQGSTNALPDVSVDDVKSPSEDLPGIKPPPPPPPLAQGHDRLLGQPRKPGREDPAPLSSAAHSGIVFSAPRNRSPPPGTAPTPGPSSAQDSPSSPIYASISHANPSSRKPLDTHLALVNQHPIGPFPRVQSPPHLKSPPAETPGAGACLPPPSPSEHPDAVGANQHFVLVEVHRPDSEPDVNEVRALPQTRTASTLSQLSDSGQTLSEDSGVDAGETEASTSGRGRQTASAKNKNGKEQPRTERTAEGANKPPGLLEPTSTLVRVRKSAATLGIAIEGGANTRQPLPRIVTIQRGGSAHNCGQLKVGHVILEVNGQTLRGKEHKEAARIIAEAFKTKERDYIDFLVTEFNVML
As for B1, the binding entry is recorded as “binds”.
